# Test results from the supplement of paper PMC10735217.
# Several values for one entry are separate records, joined by “and”; a condition that tells them apart may be missing. Equal values may be shown once. Where a name gives a salt, the structure may show the parent alone. The list shows a part of the results. Single values are uncertain here, since repeats match poorly.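 The human kidney-derived cells carry a stably integrated construct of eight TEAD-binding elements driving luciferase, read by luminescence in a drug-repurposing library screen. A compound counts as a hit when its signal is more than five robust Z scores above the plate mean.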
# Tested on: HEK293A TEAD-LUC reporter
# Assay: TEAD-luciferase reporter activity (YAP activation), robust Z score vs plate; higher = stronger YAP/TEAD activation
# Settings: 24 h
SMILES,TEAD-luciferase reporter activity (compound concentration: 200 nM),TEAD-luciferase reporter activity (compound concentration: 2 uM),TEAD-luciferase reporter activity (compound concentration: 10 uM)
C=CCC1(CCCC)C(=O)NC(=O)NC1=O,inactive: -0.00254,inactive: 1.26,inactive: 4.71
CCC(CC1COC(N)=N1)c1ccccc1 (stereo not given),inactive: 0.284,inactive: -0.611,active: 6.68
"CC(C)CC(N)C1(c2ccc(Cl)cc2)CCC1 (single isomer, unassigned; (-)) [(-)-didesmethylsibutramine]",inactive: -0.79,inactive: 0.00381,inactive: 0.746
C=CC1CN2CCC1CC2C(O)c1ccnc2ccccc12 (stereo not given) [Cinchonine dihydrochloride],inactive: -0.898,inactive: -0.283,inactive: 0.588
Clc1cccc(SCCN2CCOCC2)n1 [fopirtoline],inactive: -0.478,inactive: 0.548,inactive: 0.191
CC(C)CCON=O,inactive: 1.57,inactive: -0.691,inactive: -0.511
O=[N+]([O-])c1ccc(Cl)c([N+](=O)[O-])c1,inactive: -1.06,inactive: -0.121,inactive: -1.71
N#Cc1c[nH]cc1-c1cccc2c1OC(F)(F)O2,inactive: -1.2,inactive: -2.41,inactive: -0.278
CC(C)C[C@H](NC(=O)[C@H](CO)NC(=O)CNC(=O)[C@H](CC(C)C)NC(=O)[C@H](CCC(=O)O)NC(=O)[C@H](Cc1ccc(O)cc1)NC(=O)[C@H](CO)NC(=O)[C@H](CC(N)=O)NC(=O)[C@H](Cc1ccccc1)NC(=O)[C@H](CO)NC(=O)[C@@H](N)CSSC[C@H](N)C(=O)N[C@@H](Cc1ccc(O)cc1)C(=O)NCC(=O)N[C@@H](CCCNC(=N)N)C(=O)N[C@@H](CCCCN)C(=O)N[C@@H](CCCCN)C(=O)N[C@@H](CCCNC(=N)N)C(=O)N[C@@H](CCCNC(=N)N)C(=O)N[C@@H](CCC(N)=O)C(=O)N[C@@H](CCCNC(=N)N)C(=O)N[C@@H](CCCNC(=N)N)C(=O)N[C@@H](CCCNC(=N)N)C(=O)O)C(=O)O,inactive: -1.46,–,inactive: -0.0913
Oc1cccc2cccnc12 [8-Hydroxyquinoline],inactive: 0.793,–,inactive: 0.807
Oc1cccc2cccnc12 [Saloxin],–,inactive: -0.662,–
C[C@]12CC[C@@H]3c4ccc(OC(=O)c5ccccc5)cc4CC[C@H]3[C@@H]1CC[C@@H]2OC(=O)COC(=O)CCCc1ccc(N(CCCl)CCCl)cc1 [Atrimustine],inactive: -0.751,inactive: -0.178,inactive: -0.301
c1ccc(C2(N3CCCCC3)CCCCC2)cc1 [Phencyclidine hydrochloride],inactive: -2.41,inactive: -0.891,inactive: -0.994
"CC(C)(NC(=O)c1cc2c(n(CC3CCCCC3)c1=O)CCCCCC2)C(=O)N1CCC(NS(C)(=O)=O)CC1 [CB 1/2 dual agonists, Shionogi]",active: 7.33,inactive: -0.251,inactive: 1.26
NC(=O)c1cccc(Cc2c[nH]cn2)c1O,inactive: -1.23,inactive: 1.15,inactive: -0.736
C[C@]12C/C(=C\O)C(=O)CC1CCC1C2CC[C@@]2(C)C1CC[C@]2(C)O (stereo not given in full) [oxymetholone],–,inactive: -0.627,–
"C[C@]12C/C(=C\O)C(=O)CC1CCC1C2CC[C@@]2(C)C1CC[C@]2(C)O (stereo not given in full) [oxymetholone, Unimed]",inactive: -0.863,–,inactive: -0.907
O=C1CCC[C@@H]2[C@H]3C[C@@H](CN12)[C@@H]1CCCCN1C3 [Lupanine],inactive: -0.329,inactive: -1.53,inactive: -1.83
CCOC(=O)c1ncn2c1[C@@H]1CCCN1C(=O)c1cc(OC)ccc1-2,inactive: 0.474,inactive: -1.25,inactive: 0.0541
NCC1(CC(=O)O)CCCCC1 [gabapentin],inactive: -1.18,inactive: 0.721,inactive: 0.984
CCNC(=O)C[C@@H]1N=C(c2ccc(Cl)cc2)c2cc(OC)ccc2-n2c(C)nnc21,inactive: -0.911,active: 5.35,active: 5.2
C#CC1(OC(=O)CC)CC2CCC3C(CCC4(C)C3CCC4(C#C)OC(=O)CC)C2(C)C1 (stereo not given) [Anordrin],inactive: 1.29,inactive: 0.134,inactive: 0.804
CN(C)C(=O)N1CCCC1C(=O)N1CCC(N2Cc3ccccc3C2=O)CC1 (stereo not given),active: 6.91,–,inactive: 3.41
O=C(C[N+]12CC[C@H](CC1)[C@H](C2)OC(=O)C(c1ccccc1)(c1ccccc1)O)Nc1nocc1,inactive: -2.53,inactive: -0.849,inactive: 2.57
COC1(CS(=O)c2ccccc2)CCN(CCc2c[nH]c3ccc(F)cc23)CC1 (stereo not given),inactive: 0.302,inactive: -1.59 and inactive: 1.45,inactive: -0.74
Cc1c(N)nc([C@H](CC(N)=O)NC[C@H](N)C(N)=O)nc1C(=O)N[C@H](C(=O)N[C@H](C)[C@@H](O)[C@H](C)C(=O)N[C@H](C(=O)NCCc1nc(-c2nc(C(=O)NCCC[S+](C)C)cs2)cs1)[C@@H](C)O)C(O[C@@H]1O[C@@H](CO)[C@@H](O)[C@H](O)[C@@H]1O[C@H]1O[C@H](CO)[C@@H](O)[C@H](OC(N)=O)[C@@H]1O)c1c[nH]cn1 (stereo not given in full) [Bleomycin A2 sulfate],inactive: -1.07,inactive: -0.751,inactive: 0.949

# Reprinted at random: two records from the list
SMILES,TEAD-luciferase reporter activity (compound concentration: 200 nM),TEAD-luciferase reporter activity (compound concentration: 2 uM),TEAD-luciferase reporter activity (compound concentration: 10 uM)
O=C(C[N+]12CC[C@H](CC1)[C@H](C2)OC(=O)C(c1ccccc1)(c1ccccc1)O)Nc1nocc1,inactive: -2.53,inactive: -0.849,inactive: 2.57
"C[C@]12C/C(=C\O)C(=O)CC1CCC1C2CC[C@@]2(C)C1CC[C@]2(C)O (stereo not given in full) [oxymetholone, Unimed]",inactive: -0.863,–,inactive: -0.907
